Test results as given in article PMC4735692.
These are yes or no findings as the source states them, for the method shown. In cells and extracts the contact can be indirect. A result given as binding can be weak or reduced; the word gives no strength. Where a sequence is shown, tags or fusion partners need not be part of it.

Target: ZF motif of RAP80 (GST pulldown)
Assay: pull-down; GST pulldown with a GST fusion of one domain (Supplementary Fig. 3A,B); conditions not given

B1: TRAIP (partner in the RAP80 ZF GST pulldown) (protein, UniProt Q9BWF2 1-469)
chain: MPIRALCTICSDFFDHSRDVAAIHCGHTFHLQCLIQWFETAPSRTCPQCRIQVGKRTIINKLFFDLAQEEENVLDAEFLKNELDNVRAQLSQKDKEKRDSQVIIDTLRDTLEERNATVVSLQQALGKAEMLCSTLKKQMKYLEQQQDETKQAQEEARRLRSKMKTMEQIELLLQSQRPEVEEMIRDMGVGQSAVEQLAVYCVSLKKEYENLKEARKASGEVADKLRKDLFSSRSKLQTVYSELDQAKLELKSAQKDLQSADKEIMSLKKKLTMLQETLNLPPVASETVDRLVLESPAPVEVNLKLRRPSFRDDIDLNATFDVDTPPARPSSSQHGYYEKLCLEKSHSPIQDVPKKICKGPRKESQLSLGGQSCAGEPDEELVGAFPIFVRNAILGQKQPKRPRSESSCSKDVVRTGFDGLGGRTKFIQPTDTVMIRPLPVKPKTKVKQRVRVKTVPSLFQAKLDTFLWS
With B1 the binding was “binds”.
